Results on two molecules are retold here after patent US20240272170A1.

Substrate in assay [1]: T1, I of RLIFAK{acetyl}AYPDDD (IFAK{acetyl}AYPDDD)
T1 sequence (peptide, K4 acetylated): IFAKAYPDDD
As to the kind of experiment: on-chip dynamic sequencing with PS691, PS610, PS961, PS1165; two example traces.

Another assay addresses T2, L of … (…).
T2 sequence (peptide): LIFAKAYPDDD
The assay is described as above.

In assay [2] the target is T3, L of RLIFAK{acetyl}AYPDDD (LIFAK{acetyl}AYPDDD).
T3 sequence (peptide, K5 acetylated): LIFAKAYPDDD
Described as above.

The next assay deals with T4, …{LYS(FITC)}.
T4 sequence (peptide, FITC on the C-terminal Lys): AAKLDEESILKQK
In words: high-throughput Octet assay, peptide on the sensor.

No constants are given. Whether binding was seen depends on the method and setting. Some binding calls cover weakened binding; strength is not graded here.

B1: PS961 (designed binder)
chain: MPTAASATESAIEDTPAPARPEVDGRTKPKRQPRYHVVLWDDDDHTYQYVVVMLRSLFGHPPSRGYRMAKEMDTQGRVIVLTTTREHAELKRDQIHAFGRDRLLARSKGSMKASIEAEE
Turning to B1, the binding result (in assay [1]; in the assay with L of … (…); in assay [2]) was “binds” each time.

B2: PS824 (designed binder)
chain: MPTAASATESAFEDTPAPARPEVDGRTKPKRQPRYHVVLWDDDDHTYQYVVVMLRSLFGHPPERGYRLAKEMDTQGRVIVLTTTREHAELKRDQIHAFGYDRLLARSKGSMKASIEAEE
Turning to B2, the binding entry with …{LYS(FITC)} was “binds”.
